Some of the results follow.
Key:
Test in all cases: log2 fold change, soluble protein after heating vs DMSO (PISA); higher = thermal stabilisation; K562 lysate, 10 uM; active = over 0.2 and 3.5 SD of the protein, either way, in both replicates (recomputed)
erlotinib = compound: C#Cc1cccc(Nc2ncnc3cc(OCCOC)c(OCCOC)cc23)c1 [erlotinib]
Summary of the method: (§1)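 K562 pellets were dounce-homogenised in PBS pH 7.4 with 1 mM MgCl2, and the crude extract at 1 mg/mL protein was treated with 10 μM compound for 30 min. Aliquots were heated for 3 min across 48°C-58°C, pooled, and brought to 0.5% NP-40 at 4°C; soluble protein was the supernatant after 21,000xg for 90 min. Soluble protein was quantified by TMTpro 16plex LC-MS/MS with channel sums equalised, and reported as log2 fold change in thermal stability against DMSO controls, with values from duplicates.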

Sequences of proteins named here, by UniProt entry; tags and fusion partners are left off. A change or cut given only in a name is not applied to a line headed by its entry.
UniProt P52429: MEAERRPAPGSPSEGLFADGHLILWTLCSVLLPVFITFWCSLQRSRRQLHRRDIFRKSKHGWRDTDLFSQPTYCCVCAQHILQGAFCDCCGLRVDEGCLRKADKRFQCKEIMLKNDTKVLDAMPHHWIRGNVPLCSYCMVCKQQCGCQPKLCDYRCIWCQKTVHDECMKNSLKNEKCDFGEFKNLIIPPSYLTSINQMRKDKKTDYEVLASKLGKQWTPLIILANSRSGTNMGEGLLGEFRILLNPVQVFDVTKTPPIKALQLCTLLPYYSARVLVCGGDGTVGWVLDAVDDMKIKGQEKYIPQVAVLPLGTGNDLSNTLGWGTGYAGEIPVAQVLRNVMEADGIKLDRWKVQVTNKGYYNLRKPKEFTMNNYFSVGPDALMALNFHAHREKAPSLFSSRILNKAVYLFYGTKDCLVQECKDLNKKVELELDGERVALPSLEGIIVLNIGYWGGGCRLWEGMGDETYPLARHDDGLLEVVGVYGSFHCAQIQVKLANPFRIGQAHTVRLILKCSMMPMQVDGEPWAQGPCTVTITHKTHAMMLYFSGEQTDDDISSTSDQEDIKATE
UniProt Q9NYP3: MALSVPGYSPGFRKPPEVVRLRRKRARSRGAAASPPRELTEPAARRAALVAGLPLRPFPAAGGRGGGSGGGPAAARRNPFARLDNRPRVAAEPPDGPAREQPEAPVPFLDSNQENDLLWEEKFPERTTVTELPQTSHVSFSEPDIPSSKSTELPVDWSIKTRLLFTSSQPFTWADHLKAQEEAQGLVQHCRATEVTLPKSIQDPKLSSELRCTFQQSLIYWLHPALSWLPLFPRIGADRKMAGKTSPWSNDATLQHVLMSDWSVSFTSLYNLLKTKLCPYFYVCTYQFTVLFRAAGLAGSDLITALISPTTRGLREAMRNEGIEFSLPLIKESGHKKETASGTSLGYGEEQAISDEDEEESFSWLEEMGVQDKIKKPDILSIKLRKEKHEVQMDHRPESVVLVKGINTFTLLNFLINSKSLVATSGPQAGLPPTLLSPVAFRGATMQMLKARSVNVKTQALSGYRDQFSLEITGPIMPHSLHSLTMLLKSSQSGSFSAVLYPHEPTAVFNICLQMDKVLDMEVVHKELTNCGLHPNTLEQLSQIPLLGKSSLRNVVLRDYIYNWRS
UniProt Q9NW81: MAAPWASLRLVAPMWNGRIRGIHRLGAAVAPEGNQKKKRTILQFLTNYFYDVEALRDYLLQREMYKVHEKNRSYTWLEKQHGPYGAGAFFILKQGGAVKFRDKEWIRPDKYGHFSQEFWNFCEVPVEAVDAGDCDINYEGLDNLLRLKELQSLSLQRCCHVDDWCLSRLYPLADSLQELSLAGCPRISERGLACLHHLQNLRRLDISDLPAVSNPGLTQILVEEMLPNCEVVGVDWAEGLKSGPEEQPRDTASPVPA
UniProt O00429, whole entry, looked up: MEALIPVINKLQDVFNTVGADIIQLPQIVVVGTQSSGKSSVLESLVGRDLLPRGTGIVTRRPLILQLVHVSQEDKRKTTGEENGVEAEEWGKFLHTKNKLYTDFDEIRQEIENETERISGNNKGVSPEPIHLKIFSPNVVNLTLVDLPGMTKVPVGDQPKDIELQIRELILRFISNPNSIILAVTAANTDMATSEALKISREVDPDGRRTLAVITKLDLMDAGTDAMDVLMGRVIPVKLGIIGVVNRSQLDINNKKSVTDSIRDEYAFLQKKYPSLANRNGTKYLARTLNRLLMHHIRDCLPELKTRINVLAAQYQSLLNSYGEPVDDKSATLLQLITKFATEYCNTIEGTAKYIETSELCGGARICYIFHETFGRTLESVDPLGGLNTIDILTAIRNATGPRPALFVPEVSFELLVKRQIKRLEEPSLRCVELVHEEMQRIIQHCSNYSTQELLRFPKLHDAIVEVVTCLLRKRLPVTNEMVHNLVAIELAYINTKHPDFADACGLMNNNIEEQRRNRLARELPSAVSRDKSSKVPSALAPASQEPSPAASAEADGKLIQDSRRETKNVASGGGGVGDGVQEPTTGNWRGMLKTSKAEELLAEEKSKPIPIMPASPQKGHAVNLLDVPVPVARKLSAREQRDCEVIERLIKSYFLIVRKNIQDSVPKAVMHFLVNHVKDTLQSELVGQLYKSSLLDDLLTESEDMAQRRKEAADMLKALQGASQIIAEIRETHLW
UniProt Q8N5I4: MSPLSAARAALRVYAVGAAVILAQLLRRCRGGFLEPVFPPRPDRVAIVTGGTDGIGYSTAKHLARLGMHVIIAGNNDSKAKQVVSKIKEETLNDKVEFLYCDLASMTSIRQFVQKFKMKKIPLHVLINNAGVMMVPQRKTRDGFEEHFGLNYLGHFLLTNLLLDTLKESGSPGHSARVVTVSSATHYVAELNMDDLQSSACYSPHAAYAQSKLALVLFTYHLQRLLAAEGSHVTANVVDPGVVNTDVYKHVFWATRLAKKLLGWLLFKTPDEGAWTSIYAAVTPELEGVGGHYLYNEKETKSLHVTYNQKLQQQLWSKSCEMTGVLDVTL
UniProt Q08495: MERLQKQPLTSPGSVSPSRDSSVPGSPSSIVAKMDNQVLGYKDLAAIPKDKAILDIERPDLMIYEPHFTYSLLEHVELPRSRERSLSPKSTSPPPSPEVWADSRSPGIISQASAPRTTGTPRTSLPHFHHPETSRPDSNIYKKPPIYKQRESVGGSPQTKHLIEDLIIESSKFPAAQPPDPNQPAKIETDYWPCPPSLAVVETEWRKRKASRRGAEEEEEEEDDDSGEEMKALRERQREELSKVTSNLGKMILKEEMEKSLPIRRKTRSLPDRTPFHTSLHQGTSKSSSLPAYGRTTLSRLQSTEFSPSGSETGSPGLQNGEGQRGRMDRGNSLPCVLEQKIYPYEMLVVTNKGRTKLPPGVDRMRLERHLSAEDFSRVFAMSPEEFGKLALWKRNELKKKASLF
UniProt Q05193: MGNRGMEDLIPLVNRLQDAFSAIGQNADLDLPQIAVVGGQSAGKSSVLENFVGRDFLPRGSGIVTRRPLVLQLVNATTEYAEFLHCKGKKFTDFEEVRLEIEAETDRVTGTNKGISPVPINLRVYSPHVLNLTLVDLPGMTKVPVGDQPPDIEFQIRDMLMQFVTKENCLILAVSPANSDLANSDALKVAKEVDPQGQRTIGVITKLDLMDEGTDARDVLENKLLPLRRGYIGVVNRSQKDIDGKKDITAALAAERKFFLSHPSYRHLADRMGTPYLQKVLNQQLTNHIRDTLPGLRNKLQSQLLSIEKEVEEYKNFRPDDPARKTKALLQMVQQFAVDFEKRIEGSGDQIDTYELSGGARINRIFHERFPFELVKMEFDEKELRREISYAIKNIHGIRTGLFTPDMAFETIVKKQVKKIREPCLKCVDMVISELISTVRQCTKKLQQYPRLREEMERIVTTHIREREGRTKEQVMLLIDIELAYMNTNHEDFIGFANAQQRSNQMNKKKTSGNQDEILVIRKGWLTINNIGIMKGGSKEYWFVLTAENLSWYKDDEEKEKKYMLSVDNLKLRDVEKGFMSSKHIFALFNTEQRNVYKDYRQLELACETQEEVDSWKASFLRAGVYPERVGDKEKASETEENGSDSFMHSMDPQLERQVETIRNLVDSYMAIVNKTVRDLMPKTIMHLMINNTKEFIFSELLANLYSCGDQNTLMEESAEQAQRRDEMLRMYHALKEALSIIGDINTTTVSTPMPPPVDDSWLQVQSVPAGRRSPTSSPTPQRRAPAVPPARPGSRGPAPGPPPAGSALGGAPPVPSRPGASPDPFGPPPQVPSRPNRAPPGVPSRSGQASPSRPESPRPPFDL

[1] = compound: C/C(=N\NC(=O)C1=CC(=CC=C1)S(=O)(=O)N2CCOCC2)/C3=C(C=CC(=C3)Cl)O
Summary of the method: as §1

[2] = compound: C1=CC(=CC=C1C2=NC3=C(N2)C=C(C=C3)C(=O)N)OC4=CC=C(C=C4)Cl
Summary of the method: as §1

[3] = compound: C1=CC2=C(C=CC(=C2)/C=C\3/C(=O)NC(=NCC4=CC=CS4)S3)N=C1
Summary of the method: as §1

[4] = compound: C1=CC=C(C=C1)C2=NC(=C(N2)C3=CC=NC=C3)C4=CC(=C(C=C4)Cl)O
Summary of the method: as §1

[5] = compound: C1=CC=C2C(=C1)C3=NNC4=CC=CC(=C43)C2=O
Summary of the method: as §1

[6] = compound: C1CCN(C1)C(=O)NC2=CC=CC(=C2)NC3=NC=C(C(=N3)NCCC4=CN=CN4)Br
Summary of the method: as §1

[7] = compound: C1CN(CCC1(CC2=CC=C(C=C2)Cl)N)C3=NC=NC4=C3C=CN4
Summary of the method: as §1

IRAK-1-4 Inhibitor I = compound: C1COCCN1CCN2C3=CC=CC=C3N=C2NC(=O)C4=CC(=CC=C4)[N+](=O)[O-] [IRAK-1-4 Inhibitor I]
Summary of the method: as §1

ralimetinib = compound: CC(C)(C)Cn1c(N)nc2ccc(-c3[nH]c(C(C)(C)C)nc3-c3ccc(F)cc3)nc21 [ralimetinib]
Summary of the method: as §1

[8] = compound: CC(C)(O)CC(=O)NCCn1ccc2ncnc(Nc3ccc(Oc4cccc(C(F)(F)F)c4)c(Cl)c3)c21
Summary of the method: as §1

[9] = compound: CC(C)C1=C2N=C(C=C(N2N=C1)NCC3=CC=CC=C3)NCCCCCCN
Summary of the method: as §1

[10] = compound: CC1=C(C2=C(C=C1)C(=O)C3=CC=CC=C3N2CCCN)C
Summary of the method: as §1

[11] = compound: CC1=C(C=C(C=C1)NC(=O)C2=CC(=CC=C2)N(C)C)NC(=O)C3=CC=C(C=C3)O
Summary of the method: as §1

[12] = compound: C1=CC2=NC=CN=C2C=C1/C=C/3\C(=O)NC(=O)S3
Summary of the method: as §1

ibrutinib = compound: C=CC(=O)N1CCC[C@@H](n2nc(-c3ccc(Oc4ccccc4)cc3)c3c(N)ncnc32)C1 [ibrutinib]
Summary of the method: as §1

[13] = compound: CC(=O)c1cnc2ccc(-c3cc(Cl)c(O)c(Cl)c3)nc2c1N[C@H]1CC[C@H](CN(C)C)CC1
Summary of the method: as §1

[14] = compound: CC1=C(C(CC(=O)N1)C2=CC=C(C=C2)C(F)(F)F)C(=O)NC3=C(C=C4C(=C3)C=NN4)F
Summary of the method: as §1

[15] = compound: CC1=C(C=C(C=C1)NC(=O)C2=CC(=CC=C2)C(C)(C)C#N)NC3=CC4=C(C=C3)N=CN(C4=O)C
Summary of the method: as §1

[16] = compound: CC1=CC=C(C=C1)SC2=C3C=C(SC3=CN=C2)C(=O)N
Summary of the method: as §1

Measured: log2 fold change

DGKE (UniProt P52429)
inactive: erlotinib -0.09 | [1] 0.322 | [2] -0.19 | [3] -0.325 | [4] -0.059 | [5] 0.143 | [6] 0.094 | [7] 0.061 | IRAK-1-4 Inhibitor I -0.068 | ralimetinib -0.096 | [8] -0.211 | [9] -0.002 | [10] -0.058 | [11] -0.014

DONSON (UniProt Q9NYP3)
inactive: erlotinib 0 | [2] 0.051 | [12] 0.014 | [4] 0.06 | IRAK-1-4 Inhibitor I -0.021 | ibrutinib 0.059 | [13] 0.002 | ralimetinib -0.033 | [8] 0.074 | [9] -0.022 | [14] -0.071 | [10] -0.037 | [15] 0.062 | [11] -0.096 | [16] -0.013

DMAC2 isoform 4 (UniProt Q9NW81)
inactive: erlotinib 0.062 | [1] 0.114 | [2] -0.072 | [3] 0.02 | [12] 0.019 | [4] -0.047 | [5] -0.078 | [6] -0.052 | [7] 0.001 | IRAK-1-4 Inhibitor I -0.233 | ibrutinib -0.073 | [13] 0.111 | ralimetinib -0.092 | [8] -0.148 | [9] -0.048 | [14] -0.057 | [15] 0 | [11] -0.008 | [16] 0

DNM1L isoform 6 (UniProt O00429)
inactive: erlotinib 0.012 | [1] 0.019 | [2] 0.019 | [3] 0.015 | [12] 0.002 | [4] -0.007 | [5] -0.034 | [6] -0.025 | [7] 0.013 | IRAK-1-4 Inhibitor I 0.007 | ibrutinib 0.009 | [13] 0.002 | ralimetinib 0.023 | [8] -0.014 | [9] -0.008 | [14] 0.003 | [10] 0.021 | [15] 0.005 | [11] 0 | [16] 0.01

DHRSX (UniProt Q8N5I4)
inactive: erlotinib 0.297 | [1] -0.141 | [2] 0.099 | [3] -0.039 | [4] 0.151 | [5] 0.04 | IRAK-1-4 Inhibitor I 0.071 | ralimetinib -0.073 | [8] -0.122 | [9] -0.064 | [10] -0.066 | [11] -0.049

DMTN isoform 2 (UniProt Q08495)
inactive: erlotinib -0.11 | [1] 0.016 | [2] 0.036 | [3] 0.069 | [5] -0.099 | [6] -0.036 | [7] 0.002 | [13] -0.04 | [9] 0.058 | [10] -0.106 | [15] 0.088 | [16] 0.214

DNM1 (UniProt Q05193)
inactive: erlotinib -0.017 | [2] -0.087 | [12] -0.123 | [4] 0.14 | IRAK-1-4 Inhibitor I 0.014 | ibrutinib 0.106 | [13] 0.035 | ralimetinib 0.021 | [8] -0.008 | [9] -0.039 | [14] 0.094 | [10] -0.039 | [15] -0.046 | [11] 0.144 | [16] 0.046
